Earlier results as cited in patent US20230365624A1, “NOVEL ANGIOTENSIN I-CONVERTING ENZYME (ACE) INHIBITORY PEPTIDES” (Thai Union Group Public Company Limited, priority 2020, published 2023).

Chains of the proteins cited; added tags and fusions are not shown. Residues count along the entry.
UniProt P12821, 30-1306 limits assumed: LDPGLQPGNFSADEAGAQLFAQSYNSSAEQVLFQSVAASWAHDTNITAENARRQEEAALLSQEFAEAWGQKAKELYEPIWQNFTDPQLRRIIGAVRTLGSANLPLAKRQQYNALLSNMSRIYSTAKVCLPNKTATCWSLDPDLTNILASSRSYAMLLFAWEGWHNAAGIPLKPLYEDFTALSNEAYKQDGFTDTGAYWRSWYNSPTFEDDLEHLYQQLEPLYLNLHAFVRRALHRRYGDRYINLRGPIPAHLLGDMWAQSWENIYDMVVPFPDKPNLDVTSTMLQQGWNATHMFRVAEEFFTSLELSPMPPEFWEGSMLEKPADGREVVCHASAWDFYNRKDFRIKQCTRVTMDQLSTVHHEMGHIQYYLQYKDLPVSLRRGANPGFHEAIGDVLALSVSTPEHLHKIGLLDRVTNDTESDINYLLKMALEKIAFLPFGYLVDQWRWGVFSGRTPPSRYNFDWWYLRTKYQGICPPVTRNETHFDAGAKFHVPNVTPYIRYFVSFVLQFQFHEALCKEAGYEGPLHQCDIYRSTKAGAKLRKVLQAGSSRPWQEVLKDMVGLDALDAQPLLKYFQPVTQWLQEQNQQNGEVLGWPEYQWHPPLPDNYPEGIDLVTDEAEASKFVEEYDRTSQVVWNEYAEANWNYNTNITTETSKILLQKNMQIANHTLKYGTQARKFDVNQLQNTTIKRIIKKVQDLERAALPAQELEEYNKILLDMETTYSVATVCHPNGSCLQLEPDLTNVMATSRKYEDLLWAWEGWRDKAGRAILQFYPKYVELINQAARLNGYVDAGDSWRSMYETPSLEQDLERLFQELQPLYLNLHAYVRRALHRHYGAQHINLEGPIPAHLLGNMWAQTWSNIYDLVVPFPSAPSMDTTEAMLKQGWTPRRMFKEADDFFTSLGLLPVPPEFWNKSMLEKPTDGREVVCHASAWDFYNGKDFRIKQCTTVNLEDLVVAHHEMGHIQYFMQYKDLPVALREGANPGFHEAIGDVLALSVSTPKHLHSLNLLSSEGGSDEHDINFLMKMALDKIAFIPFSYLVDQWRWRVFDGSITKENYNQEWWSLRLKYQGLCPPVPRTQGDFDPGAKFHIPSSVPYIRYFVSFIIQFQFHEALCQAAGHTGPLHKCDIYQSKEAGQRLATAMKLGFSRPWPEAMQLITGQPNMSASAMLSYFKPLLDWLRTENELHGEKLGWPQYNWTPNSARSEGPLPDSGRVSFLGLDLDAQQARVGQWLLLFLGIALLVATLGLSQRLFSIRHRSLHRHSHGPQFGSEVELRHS

Molecular target: ACE (Homo sapiens, UniProt P12821)
Details: read-out: IC50 (ACE inhibition); Wu et al. (2008); Balti et al. (2010); cited from earlier work

SMILES	IC50 [µM]
N[C@@H](CS)C(=O)N[C@@H](Cc1ccccc1)C(=O)O	1.96
N[C@@H](Cc1ccccc1)C(=O)N[C@@H](CCC(=O)O)C(=O)O	1.45

The match of structure and compound is tentative.
